{"source": "patent US20230054895A1", "about": "“METHODS FOR INDUCING BIOSTASIS IN A CELL, TISSUE OR ORGAN” (PRESIDENT AND FELLOWS OF HARVARD COLLEGE, priority 2020, published 2023)", "tested_on": "Xenopus tadpoles", "test": "Oxygen consumption of Xenopus tadpoles and embryos", "assay_type": "in vivo, Xenopus laevis", "text": "Dynamic drug dosing used to examine stasis control parameters (10 tadpoles/chamber, n=3 replicates).\nThe oxygen consumption assay described herein above was used.", "note": "Entries after “also recorded” stand apart in the source; their conditions may differ."}
{"compound": "COc1cc2c(cc1OC)C(=O)C(CC1CCN(Cc3ccccc3)CC1)C2", "note": "(centres unmarked) [Donepezil, 2-((1-Benzylpiperidin-4-yl)methyl)-5,6-dimethoxy-2,3-dihydro-1H-inden-1-one]", "values": [{"measurement": "oxygen consumption", "setting": "compared to 1×Tricaine anesthetic control", "result": "markedly reduced oxygen consumption; also recorded: reduced oxygen consumption in Xenopus tadpoles greater than treatment with 1×Tricaine"}, {"measurement": "oxygen consumption", "setting": "compared to vehicle control", "result": "markedly reduced oxygen consumption"}]}
